Values from PubChem BioAssay AID686943 (Drosophila RNAi Screening Center, 2013)

Assay: 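Search across the genome for regulators of signalling from receptor tyrosine kinase to ERK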 (primary screen)
Cells: Drosophila S2R+ haemocyte-like cells expressing YFP-tagged ERK (Rolled)
Reagent: long dsRNA against Drosophila genes
Challenge: insulin stimulation versus unstimulated cells; dose and duration not given
Detection: 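Per-plate z-scores of phospho-ERK immunostaining normalised to YFP-tagged ERK, measured with and without insulin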
Reading the numbers: replicate 1, z-score of dpERK with insulin and replicate 2, z-score of dpERK with insulin: higher = more active ERK per ERK-YFP after insulin
The deposit covers about 23,000 reagents; below is a random part of those with a known target gene and a result. 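Extra replicates exist only for a retested subset of genes; insulin dose and duration not given; both raised and lowered dpERK matter.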 A plus sign joins genes that one reagent is predicted to hit. Not all columns of the deposit are shown. No sequences are given here. Not given: the amount of reagent, the time to read-out.

For CG14406 [DRSC19592] the deposit lists replicate 1, z-score of dpERK with insulin 0.25; replicate 2, z-score of dpERK with insulin -0.56.
CG33120 [DRSC02073] gave replicate 1, z-score of dpERK with insulin -0.24; replicate 2, z-score of dpERK with insulin 0.27.
After knock-down of Obp47a [DRSC06255], the screen gave replicate 1, z-score of dpERK with insulin -1.06; replicate 2, z-score of dpERK with insulin -1.34.
CG12540 [DRSC19471] scored replicate 1, z-score of dpERK with insulin 0.34; replicate 2, z-score of dpERK with insulin 0.37.
PolZ1 [DRSC06800] scored replicate 1, z-score of dpERK with insulin 0.09; replicate 2, z-score of dpERK with insulin -0.73.
Knock-down of Pgm2b [DRSC05978] came out at: replicate 1, z-score of dpERK with insulin 0.56; replicate 2, z-score of dpERK with insulin 0.15.
For Sgf29 [DRSC04076] the deposit lists replicate 1, z-score of dpERK with insulin 1.3; replicate 2, z-score of dpERK with insulin 0.69.
For Spp [DRSC00328] the deposit lists replicate 1, z-score of dpERK with insulin 0.69; replicate 2, z-score of dpERK with insulin 0.04.
Knock-down of Skel [DRSC14905] resulted in: replicate 1, z-score of dpERK with insulin 0.06; replicate 2, z-score of dpERK with insulin 0.12.
For Skel [DRSC14906] the deposit lists replicate 1, z-score of dpERK with insulin 0.32; replicate 2, z-score of dpERK with insulin 0.26.
Depletion of CG3502 + CG9863 [DRSC04578] came out at: replicate 1, z-score of dpERK with insulin 0.13; replicate 2, z-score of dpERK with insulin 1.15.
After knock-down of Iml1 [DRSC08249], the record shows replicate 1, z-score of dpERK with insulin -1; replicate 2, z-score of dpERK with insulin -1.05.
For CG10466 [DRSC02060], the values are replicate 1, z-score of dpERK with insulin 0.57; replicate 2, z-score of dpERK with insulin 0.11.
Depletion of RpL18 [DRSC11016] resulted in: replicate 1, z-score of dpERK with insulin -1.95; replicate 2, z-score of dpERK with insulin -0.75.
RpL18 [DRSC22323] scored replicate 1, z-score of dpERK with insulin -0.89; replicate 2, z-score of dpERK with insulin -0.76.
Depletion of CG2991 [DRSC00559] came out at: replicate 1, z-score of dpERK with insulin -0.42; replicate 2, z-score of dpERK with insulin -0.29.
Silencing of Elp1 [DRSC14250] gave: replicate 1, z-score of dpERK with insulin 0.84; replicate 2, z-score of dpERK with insulin 0.22.
For Cftr [DRSC15872], the entry reads replicate 1, z-score of dpERK with insulin 0.26; replicate 2, z-score of dpERK with insulin -0.61.
Against Rtca [DRSC18517], the entry reads replicate 1, z-score of dpERK with insulin 0; replicate 2, z-score of dpERK with insulin -0.47.

Taken from above.
CG33120 [DRSC02073], replicate 2, z-score of dpERK with insulin: 0.27
RpL18 [DRSC22323], replicate 2, z-score of dpERK with insulin → -0.76
For “replicate 1, z-score of dpERK with insulin”, Skel [DRSC14905] is entered as 0.06

Continued.
CG43376 [DRSC02537] scored replicate 1, z-score of dpERK with insulin 0.96; replicate 2, z-score of dpERK with insulin -0.29.
Cp110 [DRSC20630] gave replicate 1, z-score of dpERK with insulin -0.61; replicate 2, z-score of dpERK with insulin -0.14.
Cp110 [DRSC21716] gave replicate 1, z-score of dpERK with insulin 1.12; replicate 2, z-score of dpERK with insulin -0.12.
Knock-down of CG9568 [DRSC03265] came out at: replicate 1, z-score of dpERK with insulin -0.44; replicate 2, z-score of dpERK with insulin -1.7.
Against CG14007 [DRSC02339] the deposit lists replicate 1, z-score of dpERK with insulin -0.57; replicate 2, z-score of dpERK with insulin -0.99.
Grik [DRSC15846] showed replicate 1, z-score of dpERK with insulin -0.39; replicate 2, z-score of dpERK with insulin -2.09.
Silencing of Grik [DRSC15847] came out at: replicate 1, z-score of dpERK with insulin 0.35; replicate 2, z-score of dpERK with insulin 0.11.
rgr [DRSC06487] gave replicate 1, z-score of dpERK with insulin 0.64; replicate 2, z-score of dpERK with insulin 0.44.
rgr [DRSC07229] scored replicate 1, z-score of dpERK with insulin 0.33; replicate 2, z-score of dpERK with insulin 0.1.
Depletion of CG8584 [DRSC07217] came out at: replicate 1, z-score of dpERK with insulin 0.18; replicate 2, z-score of dpERK with insulin 0.5.
Silencing of CG42564 [DRSC12518] came out at: replicate 1, z-score of dpERK with insulin 0.5; replicate 2, z-score of dpERK with insulin -0.43.
Silencing of CG9691 [DRSC18441] gave: replicate 1, z-score of dpERK with insulin 0.08; replicate 2, z-score of dpERK with insulin 0.78.
